For seven molecules, binding results are on record in publication PMC7515897.

Chains of the proteins cited; added tags and fusions are not shown. Residues count along the entry.
UniProt P02545, residues 1-646: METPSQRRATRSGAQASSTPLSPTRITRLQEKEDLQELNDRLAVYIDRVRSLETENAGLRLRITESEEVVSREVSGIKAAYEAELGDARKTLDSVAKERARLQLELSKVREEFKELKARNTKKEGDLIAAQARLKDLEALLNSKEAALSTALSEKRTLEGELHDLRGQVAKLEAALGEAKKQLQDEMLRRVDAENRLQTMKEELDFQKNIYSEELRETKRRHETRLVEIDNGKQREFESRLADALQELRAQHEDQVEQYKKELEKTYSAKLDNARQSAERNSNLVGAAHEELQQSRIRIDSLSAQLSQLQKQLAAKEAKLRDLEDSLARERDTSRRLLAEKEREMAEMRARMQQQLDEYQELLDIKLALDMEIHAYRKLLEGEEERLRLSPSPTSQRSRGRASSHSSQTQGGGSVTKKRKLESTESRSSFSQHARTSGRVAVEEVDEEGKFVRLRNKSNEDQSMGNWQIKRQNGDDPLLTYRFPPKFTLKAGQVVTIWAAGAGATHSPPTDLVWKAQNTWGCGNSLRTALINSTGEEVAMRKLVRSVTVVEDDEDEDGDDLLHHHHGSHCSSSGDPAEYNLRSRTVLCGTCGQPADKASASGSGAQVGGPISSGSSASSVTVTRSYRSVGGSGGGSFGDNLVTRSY
UniProt P08670: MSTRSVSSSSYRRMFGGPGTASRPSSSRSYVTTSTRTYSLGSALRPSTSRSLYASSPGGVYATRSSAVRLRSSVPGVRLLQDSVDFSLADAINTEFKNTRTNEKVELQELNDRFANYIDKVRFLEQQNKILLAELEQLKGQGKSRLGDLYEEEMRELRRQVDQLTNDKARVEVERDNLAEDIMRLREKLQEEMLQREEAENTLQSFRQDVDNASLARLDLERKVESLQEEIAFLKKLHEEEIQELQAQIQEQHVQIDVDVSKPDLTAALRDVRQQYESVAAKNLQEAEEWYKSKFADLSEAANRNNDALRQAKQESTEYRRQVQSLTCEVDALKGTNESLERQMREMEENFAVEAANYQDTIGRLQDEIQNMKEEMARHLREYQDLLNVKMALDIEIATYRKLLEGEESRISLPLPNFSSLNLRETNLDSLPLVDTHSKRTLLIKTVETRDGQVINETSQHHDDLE
UniProt P21333: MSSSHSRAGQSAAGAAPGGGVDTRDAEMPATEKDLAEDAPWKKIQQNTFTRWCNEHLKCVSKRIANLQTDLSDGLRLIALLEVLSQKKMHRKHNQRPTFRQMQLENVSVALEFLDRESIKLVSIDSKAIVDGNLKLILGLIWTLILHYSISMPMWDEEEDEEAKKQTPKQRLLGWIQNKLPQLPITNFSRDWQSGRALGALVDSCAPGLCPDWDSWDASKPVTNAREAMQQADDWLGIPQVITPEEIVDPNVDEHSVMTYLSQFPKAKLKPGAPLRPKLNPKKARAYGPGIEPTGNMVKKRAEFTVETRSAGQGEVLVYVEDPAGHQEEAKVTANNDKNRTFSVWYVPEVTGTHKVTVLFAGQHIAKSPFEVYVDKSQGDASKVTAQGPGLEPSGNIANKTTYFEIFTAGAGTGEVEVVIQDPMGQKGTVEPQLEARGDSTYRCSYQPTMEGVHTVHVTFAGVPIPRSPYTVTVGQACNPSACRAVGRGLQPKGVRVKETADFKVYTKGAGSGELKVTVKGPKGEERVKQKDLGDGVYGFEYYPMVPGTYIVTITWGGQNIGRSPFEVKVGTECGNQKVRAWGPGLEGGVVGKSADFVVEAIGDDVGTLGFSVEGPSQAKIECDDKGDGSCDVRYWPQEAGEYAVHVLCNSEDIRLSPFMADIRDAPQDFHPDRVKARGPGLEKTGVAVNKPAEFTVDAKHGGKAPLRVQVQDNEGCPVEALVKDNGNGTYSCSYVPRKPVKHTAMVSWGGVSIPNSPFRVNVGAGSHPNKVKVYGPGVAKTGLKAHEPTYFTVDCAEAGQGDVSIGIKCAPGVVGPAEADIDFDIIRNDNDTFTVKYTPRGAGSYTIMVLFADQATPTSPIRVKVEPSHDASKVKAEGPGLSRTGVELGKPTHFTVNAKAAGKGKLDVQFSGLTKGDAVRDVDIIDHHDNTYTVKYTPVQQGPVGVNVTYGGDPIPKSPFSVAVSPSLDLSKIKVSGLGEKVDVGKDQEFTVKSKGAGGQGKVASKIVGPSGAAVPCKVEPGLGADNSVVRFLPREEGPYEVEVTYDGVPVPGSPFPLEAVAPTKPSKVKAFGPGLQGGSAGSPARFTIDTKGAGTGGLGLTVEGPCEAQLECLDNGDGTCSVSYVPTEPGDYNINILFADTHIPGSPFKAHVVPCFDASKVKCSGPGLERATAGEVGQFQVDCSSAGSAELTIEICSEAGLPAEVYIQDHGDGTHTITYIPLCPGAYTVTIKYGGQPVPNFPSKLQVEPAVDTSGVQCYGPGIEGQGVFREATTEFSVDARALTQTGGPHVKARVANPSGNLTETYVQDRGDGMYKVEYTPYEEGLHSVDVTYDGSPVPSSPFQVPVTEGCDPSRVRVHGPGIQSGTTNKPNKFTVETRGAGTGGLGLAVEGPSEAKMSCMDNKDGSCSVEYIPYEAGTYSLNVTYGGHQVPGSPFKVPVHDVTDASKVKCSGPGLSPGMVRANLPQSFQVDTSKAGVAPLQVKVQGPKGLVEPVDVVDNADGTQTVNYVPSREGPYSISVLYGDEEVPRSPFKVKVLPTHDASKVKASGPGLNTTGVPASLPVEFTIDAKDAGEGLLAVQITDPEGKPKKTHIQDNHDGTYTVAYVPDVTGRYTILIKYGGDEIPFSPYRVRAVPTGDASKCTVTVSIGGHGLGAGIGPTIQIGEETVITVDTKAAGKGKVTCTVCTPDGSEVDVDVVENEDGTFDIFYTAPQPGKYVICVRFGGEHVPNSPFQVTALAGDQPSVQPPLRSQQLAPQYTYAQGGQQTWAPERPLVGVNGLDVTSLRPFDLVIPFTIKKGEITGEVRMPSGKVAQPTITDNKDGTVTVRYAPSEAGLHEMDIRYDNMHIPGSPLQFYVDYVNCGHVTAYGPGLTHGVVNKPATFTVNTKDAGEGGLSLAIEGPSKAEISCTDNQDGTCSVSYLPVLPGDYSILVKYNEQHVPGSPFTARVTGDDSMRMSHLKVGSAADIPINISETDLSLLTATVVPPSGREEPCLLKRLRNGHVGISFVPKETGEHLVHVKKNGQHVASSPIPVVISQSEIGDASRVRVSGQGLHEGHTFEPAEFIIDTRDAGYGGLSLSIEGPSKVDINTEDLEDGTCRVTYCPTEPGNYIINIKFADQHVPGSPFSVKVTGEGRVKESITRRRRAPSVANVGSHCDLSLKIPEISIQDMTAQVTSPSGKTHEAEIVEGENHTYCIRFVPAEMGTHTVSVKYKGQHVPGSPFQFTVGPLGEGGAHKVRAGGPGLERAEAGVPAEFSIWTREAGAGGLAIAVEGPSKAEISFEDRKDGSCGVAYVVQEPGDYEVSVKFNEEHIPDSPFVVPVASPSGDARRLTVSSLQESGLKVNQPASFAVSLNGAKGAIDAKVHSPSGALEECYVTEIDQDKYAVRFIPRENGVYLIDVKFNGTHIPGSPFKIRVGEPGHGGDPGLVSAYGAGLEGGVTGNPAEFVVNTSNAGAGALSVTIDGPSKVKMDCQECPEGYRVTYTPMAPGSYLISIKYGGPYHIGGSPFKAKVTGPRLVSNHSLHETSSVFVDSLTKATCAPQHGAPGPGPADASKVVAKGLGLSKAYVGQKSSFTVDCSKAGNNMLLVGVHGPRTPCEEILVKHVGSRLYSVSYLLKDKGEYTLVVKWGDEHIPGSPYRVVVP
UniProt P35579: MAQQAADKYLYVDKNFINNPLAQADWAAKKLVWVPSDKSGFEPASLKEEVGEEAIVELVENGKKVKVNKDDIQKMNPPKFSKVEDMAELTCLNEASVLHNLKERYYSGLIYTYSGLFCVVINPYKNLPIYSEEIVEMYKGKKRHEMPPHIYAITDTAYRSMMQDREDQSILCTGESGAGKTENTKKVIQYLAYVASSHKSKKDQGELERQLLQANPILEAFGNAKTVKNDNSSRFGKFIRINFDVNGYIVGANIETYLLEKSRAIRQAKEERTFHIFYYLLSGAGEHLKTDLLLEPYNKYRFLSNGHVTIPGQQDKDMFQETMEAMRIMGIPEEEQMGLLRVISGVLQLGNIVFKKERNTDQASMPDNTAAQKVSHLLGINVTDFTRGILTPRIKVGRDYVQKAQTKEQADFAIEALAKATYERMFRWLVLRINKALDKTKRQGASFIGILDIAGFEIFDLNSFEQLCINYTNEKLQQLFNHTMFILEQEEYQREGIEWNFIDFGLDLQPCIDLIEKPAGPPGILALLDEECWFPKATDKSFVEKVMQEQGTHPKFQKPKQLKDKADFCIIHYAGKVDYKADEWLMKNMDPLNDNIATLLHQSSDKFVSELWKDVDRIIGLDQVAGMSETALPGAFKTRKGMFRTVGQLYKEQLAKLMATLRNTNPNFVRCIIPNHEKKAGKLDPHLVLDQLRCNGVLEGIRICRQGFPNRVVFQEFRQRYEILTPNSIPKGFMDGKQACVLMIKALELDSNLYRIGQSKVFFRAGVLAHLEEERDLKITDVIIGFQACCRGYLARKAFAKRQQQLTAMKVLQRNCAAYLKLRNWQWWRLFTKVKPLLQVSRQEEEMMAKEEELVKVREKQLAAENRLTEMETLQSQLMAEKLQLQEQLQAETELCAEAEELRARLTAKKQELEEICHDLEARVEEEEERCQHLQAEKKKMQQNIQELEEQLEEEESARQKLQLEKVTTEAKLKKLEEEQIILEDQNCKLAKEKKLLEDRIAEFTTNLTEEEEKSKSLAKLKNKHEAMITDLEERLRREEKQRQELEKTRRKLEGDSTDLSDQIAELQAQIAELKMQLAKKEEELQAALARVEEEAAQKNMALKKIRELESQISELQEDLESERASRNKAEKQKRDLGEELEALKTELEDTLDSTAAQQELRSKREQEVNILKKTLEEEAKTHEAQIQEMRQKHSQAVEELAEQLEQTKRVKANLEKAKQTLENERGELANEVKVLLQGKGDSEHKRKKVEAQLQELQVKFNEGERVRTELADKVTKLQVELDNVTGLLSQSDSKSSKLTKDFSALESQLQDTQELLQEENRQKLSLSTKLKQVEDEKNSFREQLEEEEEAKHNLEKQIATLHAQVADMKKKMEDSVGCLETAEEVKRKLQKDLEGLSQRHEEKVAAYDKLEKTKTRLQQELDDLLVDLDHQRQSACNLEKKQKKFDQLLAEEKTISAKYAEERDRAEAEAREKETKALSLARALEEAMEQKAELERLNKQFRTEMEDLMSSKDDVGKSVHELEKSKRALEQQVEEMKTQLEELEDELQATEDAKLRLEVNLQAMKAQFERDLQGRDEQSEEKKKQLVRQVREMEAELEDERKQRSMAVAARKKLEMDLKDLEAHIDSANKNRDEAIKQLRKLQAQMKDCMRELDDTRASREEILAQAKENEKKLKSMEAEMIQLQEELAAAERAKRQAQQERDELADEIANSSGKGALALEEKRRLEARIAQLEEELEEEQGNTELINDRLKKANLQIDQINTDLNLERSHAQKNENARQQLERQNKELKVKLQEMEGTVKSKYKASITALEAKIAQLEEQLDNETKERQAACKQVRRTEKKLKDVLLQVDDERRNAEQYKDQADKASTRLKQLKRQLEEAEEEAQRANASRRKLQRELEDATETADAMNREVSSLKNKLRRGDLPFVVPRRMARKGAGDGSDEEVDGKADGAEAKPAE

The chains are these.
B1: CPSM (protein, UniProt P31327 39-1500)
chain: LSVKAQTAHIVLEDGTKMKGYSFGHPSSVAGEVVFNTGLGGYPEAITDPAYKGQILTMANPIIGNGGAPDTTALDELGLSKYLESNGIKVSGLLVLDYSKDYNHWLATKSLGQWLQEEKVPAIYGVDTRMLTKIIRDKGTMLGKIEFEGQPVDFVDPNKQNLIAEVSTKDVKVYGKGNPTKVVAVDCGIKNNVIRLLVKRGAEVHLVPWNHDFTKMEYDGILIAGGPGNPALAEPLIQNVRKILESDRKEPLFGISTGNLITGLAAGAKTYKMSMANRGQNQPVLNITNKQAFITAQNHGYALDNTLPAGWKPLFVNVNDQTNEGIMHESKPFFAVQFHPEVTPGPIDTEYLFDSFFSLIKKGKATTITSVLPKPALVASRVEVSKVLILGSGGLSIGQAGEFDYSGSQAVKAMKEENVKTVLMNPNIASVQTNEVGLKQADTVYFLPITPQFVTEVIKAEQPDGLILGMGGQTALNCGVELFKRGVLKEYGVKVLGTSVESIMATEDRQLFSDKLNEINEKIAPSFAVESIEDALKAADTIGYPVMIRSAYALGGLGSGICPNRETLMDLSTKAFAMTNQILVEKSVTGWKEIEYEVVRDADDNCVTVCNMENVDAMGVHTGDSVVVAPAQTLSNAEFQMLRRTSINVVRHLGIVGECNIQFALHPTSMEYCIIEVNARLSRSSALASKATGYPLAFIAAKIALGIPLPEIKNVVSGKTSACFEPSLDYMVTKIPRWDLDRFHGTSSRIGSSMKSVGEVMAIGRTFEESFQKALRMCHPSIEGFTPRLPMNKEWPSNLDLRKELSEPSSTRIYAIAKAIDDNMSLDEIEKLTYIDKWFLYKMRDILNMEKTLKGLNSESMTEETLKRAKEIGFSDKQISKCLGLTEAQTRELRLKKNIHPWVKQIDTLAAEYPSVTNYLYVTYNGQEHDVNFDDHGMMVLGCGPYHIGSSVEFDWCAVSSIRTLRQLGKKTVVVNCNPETVSTDFDECDKLYFEELSLERILDIYHQEACGGCIISVGGQIPNNLAVPLYKNGVKIMGTSPLQIDRAEDRSIFSAVLDELKVAQAPWKAVNTLNEALEFAKSVDYPCLLRPSYVLSGSAMNVVFSEDEMKKFLEEATRVSQEHPVVLTKFVEGAREVEMDAVGKDGRVISHAISEHVEDAGVHSGDATLMLPTQTISQGAIEKVKDATRKIAKAFAISGPFNVQFLVKGNDVLVIECNLRASRSFPFVSKTLGVDFIDVATKVMIGENVDEKHLPTLDHPIIPADYVAIKAPMFSWPRLRDADPILRCEMASTGEVACFGEGIHTAFLKAMLSTGFKIPQKGILIGIQQSFRPRFLGVAEQLHNEGFKLFATEATSDWLNANNVPATPVAWPSQEGQNPSLSSIRKLIRDGSIDLVINLPNNNTKFVHDNYVIRRTAVDSGIPLLTNFQVTKLFAEAVQKSRKVDSKSLFHYRQYSAGKAA
B2: ANXA6 (protein, UniProt P08133 1-673)
chain: MAKPAQGAKYRGSIHDFPGFDPNQDAEALYTAMKGFGSDKEAILDIITSRSNRQRQEVCQSYKSLYGKDLIADLKYELTGKFERLIVGLMRPPAYCDAKEIKDAISGIGTDEKCLIEILASRTNEQMHQLVAAYKDAYERDLEADIIGDTSGHFQKMLVVLLQGTREEDDVVSEDLVQQDVQDLYEAGELKWGTDEAQFIYILGNRSKQHLRLVFDEYLKTTGKPIEASIRGELSGDFEKLMLAVVKCIRSTPEYFAERLFKAMKGLGTRDNTLIRIMVSRSELDMLDIREIFRTKYEKSLYSMIKNDTSGEYKKTLLKLSGGDDDAAGQFFPEAAQVAYQMWELSAVARVELKGTVRPANDFNPDADAKALRKAMKGLGTDEDTIIDIITHRSNVQRQQIRQTFKSHFGRDLMTDLKSEISGDLARLILGLMMPPAHYDAKQLKKAMEGAGTDEKALIEILATRTNAEIRAINEAYKEDYHKSLEDALSSDTSGHFRRILISLATGHREEGGENLDQAREDAQVAAEILEIADTPSGDKTSLETRFMTILCTRSYPHLRRVFQEFIKMTNYDVEHTIKKEMSGDVRDAFVAIVQSVKNKPLFFADKLYKSMKGAGTDEKTLTRIMVSRSEIDLLNIRREFIEKYDKSLHQAIEGDTSGDFLKALLALCGGED

Results are given in words; binding and its absence hold for the method and conditions named. Binding seen in cells or lysates may run through a third protein. These calls come from enrichment with a bait or labelling near it, and not all partners need be listed.

The assay concerns the target β2-adrenergic receptor (human (endogenous in HCC tissue and SMMC-7721)) (UniProt P07550). In words: affinity purification with mass spectrometry; immunoprecipitation-mass spectrometry (IP-MS) of β2-AR from HCC tissues.
For the molecule LMNA (from UniProt P02545 1-646), the binding entry was “binds”. Turning to VIME (from UniProt P08670 1-466), the binding entry is listed as “binds”.

As for HS90A (from UniProt P07900 1-732), the binding entry is on record as “binds”. FLNA (from UniProt P21333 1-2647): the binding entry is given as “binds”. MYH9 (from UniProt P35579 1-1960): the binding entry is listed as “binds”.

Take B1: the binding result is “binds”. Take B2: the binding result is on record as “binds”.
